Taken from: PubChem BioAssay AID1259254 (NCATS, 2017)
The whole screen tested about 59,000 reagents; below is a random part of them. About 1,550 of them (2.6%) were called active. 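G2 share is only a proxy for re-replication; each gene was hit by three separate siRNAs, and active genes were retested.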 Not all columns of the deposit are shown. The record does not give: the amount of reagent.

Test: 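Genome-wide screen for genes that prevent DNA re-replication in cancer cells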 (primary screen)
Cells: human HCT116 colorectal cancer cells
Reagents: single siRNA against human genes
Timing: 3 days
Measured: 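Imaged Hoechst DNA stain sorts each cell into a cycle phase by DNA amount; per plate, G2 fraction set to 0% for non-targeting and 100% for GMNN siRNA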
Direction: G2 robust z-score and G2 cells, % of GMNN control: higher = more G2 cells, more excess DNA replication
Rule for the call: 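Active siRNAs have a G2 robust z of 5 or more median absolute deviations over the median, which in these data means about 38% or higher of GMNN control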

For CAPN2 (GeneID 824) [SID160744773], how do the results read?
G2 robust z-score: -0.302; G2 cells, % of GMNN control: 0.841; activity call: inactive

For CAPN2 (GeneID 824) [SID160744878], how do the results read?
G2 robust z-score: 0.35; G2 cells, % of GMNN control: 5.43; activity call: inactive

For CAPN2 (GeneID 824) [SID160744985], what was measured?
G2 robust z-score: 0.0102; G2 cells, % of GMNN control: 3.04; activity call: inactive

For OGFOD1 (GeneID 55239) [SID160743316], what was measured?
G2 robust z-score: -0.55; G2 cells, % of GMNN control: -0.9; activity call: inactive

For OGFOD1 (GeneID 55239) [SID160743317], how do the results read?
G2 robust z-score: -0.343; G2 cells, % of GMNN control: 0.554; activity call: inactive

What is on record for OGFOD1 (GeneID 55239) [SID160743318]?
G2 robust z-score: 4.68; G2 cells, % of GMNN control: 35.9; activity call: inactive

A run of entries taken from the entries so far, for reference:
CAPN2 (GeneID 824) [SID160744878]: G2 robust z-score = 0.35; G2 cells, % of GMNN control = 5.43; activity call = inactive
CAPN2 (GeneID 824) [SID160744985]: G2 robust z-score = 0.0102; G2 cells, % of GMNN control = 3.04; activity call = inactive
OGFOD1 (GeneID 55239) [SID160743316]: G2 robust z-score = -0.55; G2 cells, % of GMNN control = -0.9; activity call = inactive

Continued:
Which result is listed for PAGE4 (GeneID 9506) [SID160722367]?
G2 robust z-score: -0.0624; G2 cells, % of GMNN control: 2.53; activity call: inactive

Which result is listed for PAGE4 (GeneID 9506) [SID160735228]?
G2 robust z-score: 2.06; G2 cells, % of GMNN control: 17.5; activity call: inactive

With PAGE4 (GeneID 9506) [SID160735229], what does the deposit list?
G2 robust z-score: 0.174; G2 cells, % of GMNN control: 4.19; activity call: inactive

What is on record for TNK2 (GeneID 10188) [SID160726657]?
G2 robust z-score: 8.18; G2 cells, % of GMNN control: 60.5; activity call: active

How did the screen score TNK2 (GeneID 10188) [SID160726664]?
G2 robust z-score: -0.741; G2 cells, % of GMNN control: -2.24; activity call: inactive

With TNK2 (GeneID 10188) [SID160730414], what does the deposit list?
G2 robust z-score: 1.76; G2 cells, % of GMNN control: 15.4; activity call: inactive

For GSTT1 (GeneID 2952) [SID160731038], how do the results read?
G2 robust z-score: -0.0211; G2 cells, % of GMNN control: 2.82; activity call: inactive

For GSTT1 (GeneID 2952) [SID160774663], how do the results read?
G2 robust z-score: -1.04; G2 cells, % of GMNN control: -4.32; activity call: inactive

With GSTT1 (GeneID 2952) [SID160774664], how do the results read?
G2 robust z-score: 0.417; G2 cells, % of GMNN control: 5.9; activity call: inactive

For TMBIM6 (GeneID 7009) [SID160717906], how do the results read?
G2 robust z-score: -0.19; G2 cells, % of GMNN control: 1.63; activity call: inactive

How did the screen score TMBIM6 (GeneID 7009) [SID160717908]?
G2 robust z-score: -0.641; G2 cells, % of GMNN control: -1.54; activity call: inactive

What did the screen give for TMBIM6 (GeneID 7009) [SID160717909]?
G2 robust z-score: -0.199; G2 cells, % of GMNN control: 1.57; activity call: inactive
